PubChem BioAssay AID1508597 – Cure First, 2020

Aim: 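Survival screen with siRNA in ovarian cancer cells derived from patients, with or without rucaparib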 (primary screen)
Cells: human ovarian carcinoma lines grown from tumours: OCI-P5x (papillary serous) and OCI-C5x (clear cell)
Reagent: siRNA pool against human genes, 1.25 pmol siRNA per well
Timing: 72 h or 96 h, depending on the cell culture
Conditions: rucaparib 20 µM (about IC30) or vehicle, present until read-out
Rucaparib or vehicle: Rucaparib
Cell line: OCI-P5x (serous)
Measurement: 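Luminescent ATP-based viability assay read 72 or 96 h after transfection, depending on culture, given as normalised percent viability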
Reading the numbers: viability, normalised: higher = more viable cells remaining
Call rule: 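a well counts as a hit if its normalised viability is under 80 percent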
Meaning of the calls: active = viability under 80%; inactive = viability 80% or more
This is a random part of the about 2,100 reagents, in one setting of the screen. 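Calls flag viability under 80% in either arm, not effects specific to rucaparib; the reference for percent is not stated.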 Unmarked entries are inactive. No sequences are given here. The record does not give: the 100% reference.

gene knocked down	PubChem SID	technical replicate	viability, normalised (%)
ELP4 (elongator acetyltransferase complex subunit 4)	SID405526752	1	65.6 (active)
ELP4 (elongator acetyltransferase complex subunit 4)	SID405526752	2	73.8 (active)
ELP4 (elongator acetyltransferase complex subunit 4)	SID405526752	3	83.6
GNAT1 (G protein subunit alpha transducin 1)	SID405526822	1	48.8 (active)
GNAT1 (G protein subunit alpha transducin 1)	SID405526822	2	50.5 (active)
GNAT1 (G protein subunit alpha transducin 1)	SID405526822	3	45.5 (active)
F3 (coagulation factor III, tissue factor)	SID405526775	1	43.2 (active)
F3 (coagulation factor III, tissue factor)	SID405526775	2	53.3 (active)
F3 (coagulation factor III, tissue factor)	SID405526775	3	51.9 (active)
PHKA2 (phosphorylase kinase regulatory subunit alpha 2)	SID405527614	1	102
PHKA2 (phosphorylase kinase regulatory subunit alpha 2)	SID405527614	2	64 (active)
PHKA2 (phosphorylase kinase regulatory subunit alpha 2)	SID405527614	3	85.9
MRGBP (MRG domain binding protein)	SID405528061	1	35.5 (active)
MRGBP (MRG domain binding protein)	SID405528061	2	41.1 (active)
MRGBP (MRG domain binding protein)	SID405528061	3	60.1 (active)
MED23 (mediator complex subunit 23)	SID405526998	1	45 (active)
MED23 (mediator complex subunit 23)	SID405526998	2	44.5 (active)
MED23 (mediator complex subunit 23)	SID405526998	3	45.4 (active)
STK17A (serine/threonine kinase 17a)	SID405527575	1	71.3 (active)
STK17A (serine/threonine kinase 17a)	SID405527575	2	78.6 (active)
STK17A (serine/threonine kinase 17a)	SID405527575	3	75.4 (active)
EPB41L5 (erythrocyte membrane protein band 4.1 like 5)	SID405526758	1	58.1 (active)
EPB41L5 (erythrocyte membrane protein band 4.1 like 5)	SID405526758	2	59.1 (active)
EPB41L5 (erythrocyte membrane protein band 4.1 like 5)	SID405526758	3	65.9 (active)
